The record followed here is patent US20180094045A1 (ASCLEPIUS SUZHOU TECHNOLOGY COMPANY GROUP, published 2018).

Chains of the proteins cited; added tags and fusions are not shown. Residues count along the entry.
UniProt Q9Y6N7, residues 26-1651: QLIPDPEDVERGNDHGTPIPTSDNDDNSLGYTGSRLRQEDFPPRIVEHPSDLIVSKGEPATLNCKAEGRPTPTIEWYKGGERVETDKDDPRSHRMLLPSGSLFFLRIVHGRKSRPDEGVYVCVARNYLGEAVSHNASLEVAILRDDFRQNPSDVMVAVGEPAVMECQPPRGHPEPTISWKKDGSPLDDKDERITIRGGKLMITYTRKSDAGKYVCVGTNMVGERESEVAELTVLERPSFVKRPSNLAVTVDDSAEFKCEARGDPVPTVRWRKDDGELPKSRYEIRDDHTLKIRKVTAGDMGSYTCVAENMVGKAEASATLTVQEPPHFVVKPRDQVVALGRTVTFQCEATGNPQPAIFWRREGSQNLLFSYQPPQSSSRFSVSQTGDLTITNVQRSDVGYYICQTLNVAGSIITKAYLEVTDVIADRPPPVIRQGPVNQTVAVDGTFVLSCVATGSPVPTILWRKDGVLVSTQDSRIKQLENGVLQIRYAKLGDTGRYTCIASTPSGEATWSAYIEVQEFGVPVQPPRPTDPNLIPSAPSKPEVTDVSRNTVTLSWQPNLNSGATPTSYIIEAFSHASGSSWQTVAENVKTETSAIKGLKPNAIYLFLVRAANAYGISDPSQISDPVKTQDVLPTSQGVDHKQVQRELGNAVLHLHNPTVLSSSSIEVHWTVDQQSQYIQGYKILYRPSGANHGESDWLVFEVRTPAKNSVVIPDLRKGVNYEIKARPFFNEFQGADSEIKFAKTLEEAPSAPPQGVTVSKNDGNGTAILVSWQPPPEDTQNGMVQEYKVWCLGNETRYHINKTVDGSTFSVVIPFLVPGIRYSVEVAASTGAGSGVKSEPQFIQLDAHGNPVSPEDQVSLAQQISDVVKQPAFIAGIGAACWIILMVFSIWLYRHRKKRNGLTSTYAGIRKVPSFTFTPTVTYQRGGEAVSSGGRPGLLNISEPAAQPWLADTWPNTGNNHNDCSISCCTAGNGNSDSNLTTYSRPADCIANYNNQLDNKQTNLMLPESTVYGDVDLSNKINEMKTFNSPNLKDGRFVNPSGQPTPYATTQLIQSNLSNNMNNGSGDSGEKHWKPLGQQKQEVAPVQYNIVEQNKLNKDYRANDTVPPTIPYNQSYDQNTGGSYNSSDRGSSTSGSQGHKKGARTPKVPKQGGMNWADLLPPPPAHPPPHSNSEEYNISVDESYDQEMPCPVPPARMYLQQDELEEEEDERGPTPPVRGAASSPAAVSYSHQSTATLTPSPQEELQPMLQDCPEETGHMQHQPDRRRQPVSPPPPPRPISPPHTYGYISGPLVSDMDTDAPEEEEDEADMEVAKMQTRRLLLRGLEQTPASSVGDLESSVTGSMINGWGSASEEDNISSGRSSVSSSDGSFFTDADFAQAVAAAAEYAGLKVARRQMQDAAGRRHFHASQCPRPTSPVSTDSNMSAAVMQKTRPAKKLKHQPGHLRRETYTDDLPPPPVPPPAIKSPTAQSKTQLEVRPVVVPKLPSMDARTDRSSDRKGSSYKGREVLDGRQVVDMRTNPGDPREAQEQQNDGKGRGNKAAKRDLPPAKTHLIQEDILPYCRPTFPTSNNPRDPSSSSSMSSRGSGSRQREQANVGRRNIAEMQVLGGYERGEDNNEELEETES

This experiment concerns the target Robo1 (ORIGEN Company, number: TP327713) (UniProt Q9Y6N7). The experiment in a line: SPR (BIAcore), Robo1 bound on CM5 chip. (In SPR one partner is held on a chip, and binding of the other changes the refractive index at the surface.)

These are yes or no findings as the source states them, for the method shown. Some binding calls cover weakened binding; strength is not graded here.

B1: Slit2N protein (ligand, UniProt O94813 31-1121, looked up)
chain: QCSCSGSTVDCHGLALRSVPRNIPRNTERLDLNGNNITRITKTDFAGLRHLRVLQLMENKISTIERGAFQDLKELERLRLNRNHLQLFPELLFLGTAKLYRLDLSENQIQAIPRKAFRGAVDIKNLQLDYNQISCIEDGAFRALRDLEVLTLNNNNITRLSVASFNHMPKLRTFRLHSNNLYCDCHLAWLSDWLRQRPRVGLYTQCMGPSHLRGHNVAEVQKREFVCSGHQSFMAPSCSVLHCPAACTCSNNIVDCRGKGLTEIPTNLPETITEIRLEQNTIKVIPPGAFSPYKKLRRIDLSNNQISELAPDAFQGLRSLNSLVLYGNKITELPKSLFEGLFSLQLLLLNANKINCLRVDAFQDLHNLNLLSLYDNKLQTIAKGTFSPLRAIQTMHLAQNPFICDCHLKWLADYLHTNPIETSGARCTSPRRLANKRIGQIKSKKFRCSAKEQYFIPGTEDYRSKLSGDCFADLACPEKCRCEGTTVDCSNQKLNKIPEHIPQYTAELRLNNNEFTVLEATGIFKKLPQLRKINFSNNKITDIEEGAFEGASGVNEILLTSNRLENVQHKMFKGLESLKTLMLRSNRITCVGNDSFIGLSSVRLLSLYDNQITTVAPGAFDTLHSLSTLNLLANPFNCNCYLAWLGEWLRKKRIVTGNPRCQKPYFLKEIPIQDVAIQDFTCDDGNDDNSCSPLSRCPTECTCLDTVVRCSNKGLKVLPKGIPRDVTELYLDGNQFTLVPKELSNYKHLTLIDLSNNRISTLSNQSFSNMTQLLTLILSYNRLRCIPPRTFDGLKSLRLLSLHGNDISVVPEGAFNDLSALSHLAIGANPLYCDCNMQWLSDWVKSEYKEPGIARCAGPGEMADKLLLTTPSKKFTCQGPVDVNILAKCNPCLSNPCKNDGTCNSDPVDFYRCTCPYGFKGQDCDVPIHACISNPCKHGGTCHLKEGEEDGFWCICADGFEGENCEVNVDDCEDNDCENNSTCVDGINNYTCLCPPEYTGELCEEKLDFCAQDLNPCQHDSKCILTPKGFKCDCTPGYVGEHCDIDFDDCQDNKCKNGAHCTDAVNGYTCICPEGYSGLFCEFSPPMVLPR
notes: domain: protein at N-terminal of slit2 with a molecular weight of about 120 KDa; Comparator in the SPR experiment
For the molecule B1, the binding result is “binds”.
